Reference: patent US11090313B2, “Methods for inhibiting muscle atrophy” (UNIVERSITY OF IOWA RESEARCH FOUNDATION, priority 2010, dated 2021)

Key:
C57BL/6 mice [1] = test: Fasting-induced muscle atrophy in mice (i.p. dosing, 24 h fast); type: in vivo, mouse; conditions: i.p. twice, mg/kg: ursolic acid 200, oleanolic acid 200, metformin 250
Method: The mice were then fasted, and after 12 hours of fasting, the mice received a second dose of the compound or vehicle. After 24 hours of fasting, the blood glucose was measured and muscles were harvested. The data shown in FIGS. 6C-6H are means±SEM from ≤16 mice per condition. […] The effects of metformin and ursolic acid on fasting-induced muscle atrophy were also examined, i.e. the effect of 24 h fast (relative to ad lib feeding) on wet weight of lower hindlimb skeletal muscle (bilateral tibialis anterior (“TA” muscle), gastrocnemius, and soleus; see FIGS. 6E-6G). […] In FIGS. 6E-6H, each data point represents one mouse and the horizontal bars denote the means. In FIGS. 6C-6H, P-values were determined using unpaired t-tests.
Mice were then fasted, and after 12 hours of fasting, mice received a second dose of ursolic acid, oleanolic acid, or vehicle. After 24 hours of fasting, lower hindlimb skeletal muscles and liver were harvested and weighed.
To test this, food was withdrawn from mice, and then vehicle, ursolic acid (200 mg/kg) or tomatidine (50 mg/kg) were administered by i.p. injection. Twelve hours later, mice received another i.p. injection of vehicle or the same dose of ursolic acid or tomatidine. Twelve hours later, skeletal muscles were harvested and weighed. […] We next used the same protocol to compare the effects of vehicle (corn oil) and tomatidine (5, 15 and 50 mg/kg).

C57BL/6 mice [2] = test: Dietary ursolic acid in standard chow: muscle, fat, organ weights, grip strength, plasma markers

Row | Compound | liver weight in fasted mice (C57BL/6 mice [1]) | food intake (C57BL/6 mice [2]; 0.27% ursolic acid in chow 4 weeks, then 48 h in CLAMS) | total body weight (C57BL/6 mice [2]; ursolic acid in standard chow, 7 weeks)
1 | CN(C)C(=N)N=C(N)N [metformin, reference compound] | increased liver weight | – | –
2 | CC1(C)CC[C@]2(C(=O)O)CC[C@]3(C)C(=CC[C@@H]4[C@@]5(C)CC[C@H](O)C(C)(C)[C@@H]5CC[C@]43C)[C@@H]2C1 [oleanolic acid, reference compound] | increased liver weight | – | –
3 | C[C@H]1[C@H](C)CC[C@]2(C(=O)O)CC[C@]3(C)C(=CC[C@@H]4[C@@]5(C)CC[C@H](O)C(C)(C)[C@@H]5CC[C@]43C)[C@H]12 [ursolic acid] | but not liver weight | did not alter food intake | did not increase total body weight
